Consider 107 sequences from PubChem BioAssay AID1508600 (Functional Genomics Laboratory (NCATS/FGL), 2020).

Hit rate of the full screen: of about 53,000 sequences, about 3,700 (7%) were called active.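 The calls were made as follows: active = gene knockdowns whose robust z-score for IL-1 alpha signal is at least 2 or at most -2, so actives lie on both sides; inactive = the rest.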 The list shows a part of the results.

The experiment is described as follows: Components of the Cytosolic LPS Sensing Pathway: Gene Identification via Genome-wide siRNA Screen.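 Also: robust z of the log signal after scaling to non-targeting control siRNA wells of the plate.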 Particulars: RAW264.7 macrophages, IL-1a HTRF, actives lie on both sides, screened at 100 nM (by protocol), cells primed 5 h with Pam3CSK4 first. A digest of the protocol: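 Cells (RAW264.7, 1×10^4 per well) were transfected with siRNA at 100 nM and cultured 48h at 37 degrees C. Pam3CSK4 was added for 5 hours; LipidA transfection followed for 24 hour. IL-1a was then measured by HTRF.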
In general terms: In TR-FRET formats the signal depends on donor and acceptor labels being close together.
As for GGUGAAAUAUGUUAUCUGGTT against Copa, the z-score was inactive: 0.467.

In the case of GGUCCUUUCCCAUAACCUGTT against Swap70, the z-score was inactive: -0.922.

With GCUCCAAAUUAAAUUUUGCTT against Irf9, the z-score is inactive: 0.768.

In the case of GCUACUAUCUGGAGUCGUATT against Pycard, the z-score is inactive: -0.51.

For the sequence GGCUUAAGUGUGCAGCUACTT against B3gnt4, the z-score was inactive: -0.479.

Consider CGCAUACUGUAAAAACUUCTT against Fastkd3, for which the z-score is inactive: -1.08.

In the case of GGAGAAGUCCAAAUUCGAGTT against Raly, the z-score was inactive: -0.277.

With GGCCGUCGGAAAAAGGAUGTT against Abcf1, the z-score is inactive: -0.378.

On to CCUAUGUUUUAGCAAGCAGTT against Acyp2, for which the z-score is inactive: 0.758.

For GAGACUAAUAUAGUGAAUGTT against Foxj1, the z-score was inactive: -0.314.

For the sequence GGUGUACCUCUGAAAAAAATT against Zbp1, the z-score is inactive: -1.5.

As to GGAGUUUGUGUUUUAUCUATT against Ppp1r3b, the z-score was inactive: -0.175.

Regarding GGUGUGGGAUUUCUACACUTT against Sbf1, the z-score is inactive: 0.0854.

Turning to GGUGGUGGAACAAGAUGAGTT against Psen1, the z-score was inactive: -1.05.

As for GAGAAUGACGGACAAGUGUTT against Timm13, the z-score was inactive: 1.09.

GGGAACAUGUAAACUAACGTT against Klf3: the z-score was inactive: 0.701.

On to GCCUCCCGGAAAUAUAGGUTT against Sipa1l3, for which the z-score was inactive: 0.429.

With GGUUCUUUUUGGUGUUAUGTT against Psme3, the z-score was inactive: -0.759.

GGUAUUUUUUUCUCAGCCATT against Dhdh: the z-score was inactive: -0.937.

In the case of GCCUUUAUCUACCGCCCAGTT against Fam120b, the z-score was inactive: -0.265.

For GCACCUAACUCUAGUUUUGTT against Golga7, the z-score was inactive: 1.22.

GGUUGACCCUGGAAUCUCUTT against Hhatl: the z-score is inactive: -1.3.

With CCCUACAUGGAUGAGAACUTT against Trnau1ap, the z-score was inactive: -0.759.

As to GCUCAUAGAGCAAAUACGUTT against Sall1, the z-score is inactive: -0.932.

In the case of GUUGUAUUUCUUUGCCUUCTT against Olfr1098, the z-score was inactive: 1.76.

In the case of GGGAUCCUGGAAAUUGUAATT against Esco1, the z-score was inactive: -1.36.

Consider CCAAGAAAUGUAUGCCAUUTT against Slc26a2, for which the z-score is inactive: 1.02.

With GGAUGGAAAACUCAUCAUCTT against Gnb1, the z-score is inactive: 1.07.

In the case of GCCUGAUUAGCAAGUGAUGTT against Evx1, the z-score was inactive: -1.54.

As to GGAAGUAGAGACAGGAGGATT against Vamp5, the z-score was inactive: 0.996.

Turning to GGGUGCUAAUCUGAAAGGUTT against Kctd9, the z-score is inactive: -1.43.

In the case of GCACUAUCCACAUGCACAUTT against Olfr1281, the z-score is inactive: 0.469.

For CCCUCUAUCCUUAAACCAUTT against Erg28, the z-score was inactive: -0.549.

Consider CCAAGUGUUACCUCACUACTT against Cables2, for which the z-score was inactive: -0.0931.

As to GGGCUGUCUCAAUGAGAUGTT against Irgc1, the z-score is inactive: -0.752.

Regarding “GGAUUUGAACUCAGAUGUUTT against A430057M04Rik”, the z-score is active: 2.15.

In the case of GGCUCAUAUUUGCUACUGUTT against Gprc5d, the z-score was inactive: 0.481.

On to GGAGAAAGCAAAAACUAUATT against Ube2z, for which the z-score is inactive: -0.387.

As for GGAGAAAGAAUCUGAAAAUTT against Kctd19, the z-score is inactive: -0.296.

Regarding GGAUAUUCAUAGUAACACATT against Nmd3, the z-score was inactive: 0.697.

GGGCCACAGUUUCAGCUUCTT against H6pd: the z-score was inactive: 0.882.

Regarding CCCAGAGGUAAAGAAGGUCTT against Tex29, the z-score is inactive: -1.81.

In the case of GGAGCCAGAACCUGAAAUUTT against Ankrd1, the z-score is active: 2.86.

As for CGAAACAUCCCUAUGCUCUTT against Lsm3, the z-score was inactive: -0.641.

Consider GGAAGUCACAAAUAAUUUGTT against Caprin1, for which the z-score was inactive: 1.67.

For GGCUGUGGAUUUCUCUCUGTT against Kng1, the z-score was inactive: -0.334.

In the case of GGAUGAAUAAGGACAGAUUTT against Phospho2, the z-score was inactive: 0.335.

As for GGGAAUUAAACAAUAUUGCTT against Cd163, the z-score is inactive: 0.545.

With GGAAGUGAACCAGUUGAGATT against Pcdh7, the z-score was inactive: 0.496.

For the sequence GCACCUGGGCCUUUGAAUATT against Hes2, the z-score was inactive: -0.754.

As to CGUGAUGUACAUGCAGGAUTT against Slc48a1, the z-score is active: 2.83.

On to GGUUACCCUUGAGAAGAACTT against Narf, for which the z-score is inactive: 0.518.

In the case of GGAAGUUCUUCCUAAGUACTT against Hsf2, the z-score was inactive: -1.41.

Take GGAUGAGAAUAGUGCUAAATT against Arhgap26: the z-score is inactive: 1.39.

For the sequence GGUGAAUUUUCAGUUGAUATT against Serbp1, the z-score was inactive: -0.65.

In the case of GGUAUUCCUUUUUUGUAGCTT against Mboat1, the z-score is inactive: 0.177.

For CCAAAUACUGUUCAAGAUGTT against Lypla1, the z-score was inactive: -0.463.

On to GGACCAGAAUGCAACUCUUTT against Pex5, for which the z-score is inactive: -0.403.

As for CGCAUCCUAAGAAAUGACATT against Blvrb, the z-score was inactive: 0.321.

As for GCUCAUUUGUUUCCAAUAATT against Maf1, the z-score was inactive: -0.713.

With GGAGUCCACUAAAGUCCUATT against Fmnl3, the z-score was inactive: 0.409.

Consider GUACACUCAGGCUGAGGGUTT against Acyp1, for which the z-score is inactive: 0.0397.

On to GCGCGCUAAAAUGGAUGGCTT against Kng2, for which the z-score was inactive: -0.19.

Consider GGCCAUCAGAUAAAAGUUGTT against Sgsm1, for which the z-score was inactive: -0.383.

Consider GCGAAAGACGAUCAAAACCTT against Scn1a, for which the z-score is inactive: 0.841.

CGGAGUUGGAUGUUAUUCUTT against Cenpu: the z-score was inactive: 0.0358.

For GGAAAUAUUACCUUUGUACTT against Sp3, the z-score was inactive: -0.762.

As to GGUCAUGAACUUCACAAUUTT against Sgcd, the z-score is inactive: 0.513.

As to GCUAUAUAAAGGCUGAGUATT against Emilin3, the z-score was inactive: -0.128.

As for CCUUAUCUAUAACUCUGCUTT against Tirap, the z-score was inactive: -0.772.

Regarding GCCGCUAGCAUGGUCUAUUTT against Apoa5, the z-score was active: 2.51.

Turning to CCACAGGGACAACAAACUATT against Arid3b, the z-score is inactive: 0.0513.

Consider GCUGGUAUUUAAUAGAGGATT against Nkap, for which the z-score is inactive: 0.535.

Regarding CGUGAAGAUGACCGAUGAUTT against Rpl10a, the z-score was inactive: -0.347.

For the sequence CGGGCUCACAGUUUCUACUTT against Ethe1, the z-score is inactive: -0.648.

Regarding CGCGAUCAUAGAUUGGGCUTT against Sec61b, the z-score is inactive: -0.624.

For the sequence CGCAUUACUAUCACCAAAGTT against Samd4, the z-score was inactive: -0.482.

As for GGAACAAAGAUGUGUCUGGTT against Olfr31, the z-score was inactive: 0.0504.

For the sequence UGUGGUGAACCCAAUGCACTT against Klk1b22, the z-score was active: -3.28.

For the sequence GGCUCAGAUCAAGCCAAAGTT against Cldn10, the z-score was inactive: -1.13.

On to GCUUUUAUGCCACAAAUGATT against Pon1, for which the z-score was inactive: 0.155.

Regarding GGAAAAAGCCAACAAUUUGTT against Spats1, the z-score is inactive: 1.62.

Turning to GGGCAUCAAACCUACUGUCTT against Prrc2a, the z-score is inactive: -1.8.

In the case of GGUGCCUUGGGAAAAAGGATT against Ttc27, the z-score was inactive: 0.719.

In the case of GGCAGUAGAUGAAAAUAAATT against Nphp1, the z-score is inactive: 0.929.

For the sequence CGCAGGUAAUUUGUUUGUGTT against Mtnr1b, the z-score was inactive: 1.16.

As to GGAGGAAGAUGACCUCAUCTT against Crlf2, the z-score is inactive: -0.212.

With GCACCGGAUUGAUUUUGUCTT against Pcyt1a, the z-score was inactive: 0.0188.

Consider GCUAACCCUCGUUUAGAAGTT against Apol9b, for which the z-score is inactive: 0.529.

As to GGAGAUAAUCCUGAAUGGCTT against Hsd3b6, the z-score was inactive: -1.18.

In the case of GGUGAAGUGUGUCAGUCUGTT against Orc6, the z-score was inactive: -0.551.

GGUCUUUCAAGAGUUGAAATT against Fam98a: the z-score was inactive: 1.49.

Take GCGGUCUUUCUUUCUUCGATT against Sim2: the z-score was inactive: -1.42.

As for GGAGAUUGGAAGAAGAAAATT against Sash1, the z-score is inactive: 0.0734.

Take CCUCCAGAUAAGAAUGUGCTT against Fnip1: the z-score is inactive: -1.34.

As for GCCUCUGUAUGUCAUAUUGTT against Zfp345, the z-score is inactive: 1.12.

For GGAGAACUAUUUCUUCAUCTT against Paf1, the z-score is inactive: 1.03.

With GCCAUUUUGCGUGUGGCACTT against Sgsm3, the z-score is inactive: 0.507.

For the sequence GGUAGUAGGGAACCAUAAATT against Zfp563, the z-score was inactive: -0.0657.

As to GGACCAUGUGAUAAUAUCGTT against Als2, the z-score is inactive: -0.599.

As to GCUUAUACACAGUACAGAATT against M1ap, the z-score was inactive: 0.876.

Consider CCAGUUUUCGACACAAUUCTT against Cma1, for which the z-score is inactive: 0.645.

With GGGAGACCCAAUGUCAUCATT against Dtx3, the z-score is inactive: -1.25.

As for GGAUUUUAAAAUUCCCAGUTT against Usp33, the z-score is inactive: -0.593.

As to GGUUGUCAAGGCUGCUCAUTT against Gpihbp1, the z-score was inactive: 0.0129.

On to GGCAAGAGUGUUUUCAUACTT against Insl6, for which the z-score is inactive: 0.26.

Take GCCCUGUUUUGAUCCAUGCTT against Slitrk3: the z-score is inactive: 0.635.
